Experimental data from patent US20240270728A1, “NEW SUBSTITUTED QUINOLINES AS FUNGICIDES” (BASF SE, priority 2021, published 2024).
Some results were stated once for a whole list of compounds, not compound by compound. For at least one compound, name, drawing or mass did not settle the structure.

Key:
Microdochium nivale = assay: Activity against Microdochium nivale in the microtiterplate test; type: cell-based; conditions: 31 ppm active substance; DOB media pH 7; relative growth vs compound-free control (100%)
[1] = test system: Colletotrichum orbiculare; assay: Activity against Colletotrichum orbiculare in the microtiterplate test; type: cell-based; conditions: 31 ppm active substance; DOB media pH 7; relative growth vs compound-free control (100%)
Leptosphaeria nodorum = assay: Activity against Leptosphaeria nodorum in the microtiterplate test; type: cell-based; conditions: 31 ppm active substance; DOB media pH 7; relative growth vs compound-free control (100%)
Fusarium gramminearis = assay: Activity against Fusarium gramminearis in the microtiterplate test; type: cell-based; conditions: 31 ppm active substance; DOB media pH 7; relative growth vs compound-free control (100%)
Monilinia laxa = assay: Activity against Monilinia laxa in the microtiterplate test; type: cell-based; conditions: 31 ppm active substance; DOB media pH 7; relative growth vs compound-free control (100%)
[2] = test system: Pyrenophora teres Qoi (FL129) resistant isolate; assay: Activity against Pyrenophora teres Qoi (FL129) resistant isolate in the microtiterplate test; type: cell-based; conditions: 31 ppm active substance; DOB media pH 7; relative growth vs compound-free control (100%)
Leptosphaeria maculans = assay: Activity against Leptosphaeria maculans in the microtiterplate test; type: cell-based; conditions: 31 ppm active substance; DOB media pH 7; relative growth vs compound-free control (100%)
Corynespora cassiicola = assay: Activity against Corynespora cassiicola in the microtiterplate test; type: cell-based; conditions: 31 ppm active substance; DOB media pH 7; relative growth vs compound-free control (100%)
[3] = test system: Corynespora cassiicola (CORYCA-G) G413A mutant; assay: Activity against Corynespora cassiicola (CORYCA-G) G413A mutant in the microtiterplate test; type: cell-based; conditions: 31 ppm active substance; DOB media pH 7; relative growth vs compound-free control (100%)
Botrytis cinerea [4] = assay: Activity against the grey mold Botrytis cinerea in the microtiterplate test; type: cell-based; conditions: 31 ppm active substance; relative growth vs compound-free control (100%)
Septoria tritici = assay: Activity against the leaf blotch on wheat caused by Septoria tritici in the microtiterplate test; type: cell-based; conditions: 31 ppm active substance; relative growth vs compound-free control (100%)
Sclerotinia sclerotiorum = assay: Preventative fungicidal control of white mold on oilseed rape caused by Sclerotinia sclerotiorum; type: in vivo; conditions: 100 g/ha, inoculated next day, assessed after 14 days, untreated plants 100% infected
Botrytis cinerea [5] = assay: Preventative fungicidal control of Botrytis cinerea on leaves of green pepper (100 g/ha); type: in vivo; conditions: inoculated next day, assessed after 5 days, untreated plants 100% infected
Botrytis cinerea [6] = assay: Long lasting control of Botrytis cinerea on leaves of green pepper (100 g/ha); type: in vivo; conditions: inoculated 7 days after treatment, assessed after 5 days, untreated plants 90% infected
Fusarium culmorum = assay: Activity against Fusarium culmorum in the microtiterplate test; type: cell-based; conditions: 31 ppm active substance; relative growth vs compound-free control (100%)

Compound	growth of the pathogen (Microdochium nivale) [%]	growth of the pathogen [1] [%]	growth of the pathogen (Leptosphaeria nodorum) [%]	growth of the pathogen (Fusarium gramminearis) [%]	growth of the pathogen (Monilinia laxa) [%]	growth of the pathogen [2] [%]	growth of the pathogen (Leptosphaeria maculans) [%]	growth of the pathogen (Corynespora cassiicola) [%]	growth of the pathogen [3] [%]	growth of the pathogen (Botrytis cinerea [4]) [%]	growth of the pathogen (Septoria tritici) [%]	growth of the pathogen (% diseased leaf area) (Sclerotinia sclerotiorum)	growth of the pathogen (% diseased leaf area) (Botrytis cinerea [5])	growth of the pathogen (% diseased leaf area) (Botrytis cinerea [6])	growth of the pathogen (Fusarium culmorum) [%]
CC(C)(C)CC1(C)N=C(c2cnc3c(F)cccc3c2)c2ccccc2O1 (stereo not drawn) [Ex-29]	≤ 19	≤ 13	≤ 4	≤ 20	≤ 19	≤ 20	≤ 16	≤ 17	≤ 8						
CC(C)C1CCCC12N=C(c1cnc3c(F)cccc3c1)c1ccccc1O2 (stereo not drawn) [Ex-30]	≤ 19	≤ 13	≤ 4		≤ 19	≤ 20	≤ 16		≤ 8						
CC(C)(C)C1N=C(c2cnc3c(F)cccc3c2)c2ccccc2O1 (stereo not drawn) [Ex-31]	≤ 19	≤ 13	≤ 4	≤ 20	≤ 19	≤ 20	≤ 16		≤ 8						
CC1CCCC(C)C12N=C(c1cnc3c(F)cccc3c1)c1ccccc1O2 (stereo not drawn) [Ex-33]	≤ 19	≤ 13	≤ 4				≤ 16	≤ 17	≤ 8						
CC(C)(C)c1cccc2c1OC1(CCC1)N=C2c1cnc2c(F)cccc2c1 [Ex-34]	≤ 19	≤ 13	≤ 4		≤ 19		≤ 16								
Fc1cccc2cc(C3=NC4(COC4)Oc4ccccc43)cnc12 [Ex-35]	≤ 19	≤ 13	≤ 4	≤ 20	≤ 19	≤ 20	≤ 16	≤ 17	≤ 8						
CC1(C2CCC2)N=C(c2cnc3c(F)cccc3c2)c2ccccc2O1 (stereo not drawn) [Ex-45]	≤ 19	≤ 13	≤ 4		≤ 19			≤ 17		≤ 17	≤ 18	at most 13%	at most 15%	at most 13%	
Fc1cccc2c1OC1(CCC1)N=C2c1cnc2ccccc2c1 [Ex-48]	≤ 19	≤ 13	≤ 4		≤ 19			≤ 17		≤ 17	≤ 18			at most 13%	
COCC1(C)N=C(c2cnc3c(F)cccc3c2)c2cccc(F)c2O1 (stereo not drawn) [Ex-49]	≤ 19	≤ 13	≤ 4	≤ 20	≤ 19	≤ 20	≤ 16	≤ 17	≤ 8			at most 13%	at most 15%	at most 13%	
Fc1cccc2c1OC1(CCC1)N=C2c1cnc2c(Cl)cccc2c1 [Ex-51]	≤ 19	≤ 13	≤ 4		≤ 19			≤ 17		≤ 17		at most 13%	at most 15%	at most 13%	
c1ccc2c(c1)OC1(CCC1)N=C2c1cnc2ccccc2c1 [Ex-54]	≤ 19	≤ 13	≤ 4		≤ 19			≤ 17		≤ 17		at most 13%		at most 13%	
CC1(C2CC2)N=C(c2cnc3c(F)cccc3c2)c2ccccc2O1 (stereo not drawn) [Ex-55]	≤ 19	≤ 13	≤ 4	≤ 20	≤ 19	≤ 20	≤ 16	≤ 17	≤ 8	≤ 17	≤ 18	at most 13%		at most 13%	≤ 16
CC(C)(C)CC1CC2(C1)N=C(c1cnc3c(F)cccc3c1)c1ccccc1O2 (stereo not drawn) [Ex-58]															≤ 16
CC(C)CC1CC2(C1)N=C(c1cnc3c(F)cccc3c1)c1ccccc1O2 (stereo not drawn) [Ex-59]															≤ 16
CCC1CC2(C1)N=C(c1cnc3c(F)cccc3c1)c1ccccc1O2 (stereo not drawn) [Ex-60]															≤ 16
